Experimental data: paper PMC9682543
Results are given in words; binding and its absence hold for the method and conditions named. In cells and extracts the contact can be indirect. Binding can be weak; no strength is given.

Target: T1, serpinE2 (serine (or cysteine) peptidase inhibitor, clade E, member 2) (mouse (endogenous in neonatal mouse cardiac fibroblasts)) (UniProt Q07235)
T1 sequence: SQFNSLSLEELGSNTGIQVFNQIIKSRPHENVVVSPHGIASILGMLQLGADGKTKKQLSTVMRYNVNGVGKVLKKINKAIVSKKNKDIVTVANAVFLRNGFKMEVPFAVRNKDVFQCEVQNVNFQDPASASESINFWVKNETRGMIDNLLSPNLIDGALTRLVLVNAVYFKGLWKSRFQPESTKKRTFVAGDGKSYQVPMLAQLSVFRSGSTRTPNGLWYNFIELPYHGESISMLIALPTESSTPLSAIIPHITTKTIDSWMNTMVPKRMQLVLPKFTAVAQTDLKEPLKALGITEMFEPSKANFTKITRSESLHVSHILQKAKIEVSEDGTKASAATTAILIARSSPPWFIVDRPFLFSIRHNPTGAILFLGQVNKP
Test: co-IP; cardiac fibroblasts lysed in IP lysis buffer; complex captured with anti-serpinE2 antibody and Protein A/G PLUS-Agarose, washed with PBS; uPAR and LRP1 detected by immunoblotting; IgG as negative control

low-density lipoprotein receptor-related protein 1 (LRP1)
binding: binds
